Assay results: PMC8716806

Biological target: TraC of the gonococcal type IV secretion system (cytoplasmic ATPase, VirB4 homologue) (Neisseria gonorrhoeae)
Test: two-hybrid; bacterial two-hybrid (BACTH): T18 and T25 fragments of B. pertussis adenylate cyclase fused to the N- or C-terminus; plasmids co-transformed into E. coli BTH101; LB agar with 0.5 mM IPTG and 40 ug/ml X-gal, 40-48 h at 30 C, blue colony colour; beta-galactosidase assay (Miller) of overnight cultures at 30 C for some pairs

B1: SopB, plasmid partitioning protein of F-plasmid (DNA-binding partner) (protein, UniProt P62558 1-323)
chain: MKRAPVIPKHTLNTQPVEDTSLSTPAAPMVDSLIARVGVMARGNAITLPVCGRDVKFTLEVLRGDSVEKTSRVWSGNERDQELLTEDALDDLIPSFLLTGQQTPAFGRRVSGVIEIADGSRRRKAAALTESDYRVLVGELDDEQMAALSRLGNDYRPTSAYERGQRYASRLQNEFAGNISALADAENISRKIITRCINTAKLPKSVVALFSHPGELSARSGDALQKAFTDKEELLKQQASNLHEQKKAGVIFEAEEVITLLTSVLKTSSASRTSLSSRHQFAPGATVLYKGDKMVLNLDRSRVPTECIEKIEAILKELEKPAP
- binding: binds

Results are given in words; binding and its absence hold for the method and conditions named. Binding can be weak; no strength is given.
